Source: PMC6339671, “NudCL2 is an Hsp90 cochaperone to regulate sister chromatid cohesion by stabilizing cohesin subunits” (Cellular and Molecular Life Sciences: CMLS, 2018)
These are yes or no findings as the source states them, for the method shown. For part of these data: Binding seen in cells or lysates may run through a third protein. Some entries that bind do so weakly or less than the wild type. For part of these data: Where a sequence is shown, tags or fusion partners need not be part of it.

Chains of the proteins cited; added tags and fusions are not shown.
UniProt Q9UQE7: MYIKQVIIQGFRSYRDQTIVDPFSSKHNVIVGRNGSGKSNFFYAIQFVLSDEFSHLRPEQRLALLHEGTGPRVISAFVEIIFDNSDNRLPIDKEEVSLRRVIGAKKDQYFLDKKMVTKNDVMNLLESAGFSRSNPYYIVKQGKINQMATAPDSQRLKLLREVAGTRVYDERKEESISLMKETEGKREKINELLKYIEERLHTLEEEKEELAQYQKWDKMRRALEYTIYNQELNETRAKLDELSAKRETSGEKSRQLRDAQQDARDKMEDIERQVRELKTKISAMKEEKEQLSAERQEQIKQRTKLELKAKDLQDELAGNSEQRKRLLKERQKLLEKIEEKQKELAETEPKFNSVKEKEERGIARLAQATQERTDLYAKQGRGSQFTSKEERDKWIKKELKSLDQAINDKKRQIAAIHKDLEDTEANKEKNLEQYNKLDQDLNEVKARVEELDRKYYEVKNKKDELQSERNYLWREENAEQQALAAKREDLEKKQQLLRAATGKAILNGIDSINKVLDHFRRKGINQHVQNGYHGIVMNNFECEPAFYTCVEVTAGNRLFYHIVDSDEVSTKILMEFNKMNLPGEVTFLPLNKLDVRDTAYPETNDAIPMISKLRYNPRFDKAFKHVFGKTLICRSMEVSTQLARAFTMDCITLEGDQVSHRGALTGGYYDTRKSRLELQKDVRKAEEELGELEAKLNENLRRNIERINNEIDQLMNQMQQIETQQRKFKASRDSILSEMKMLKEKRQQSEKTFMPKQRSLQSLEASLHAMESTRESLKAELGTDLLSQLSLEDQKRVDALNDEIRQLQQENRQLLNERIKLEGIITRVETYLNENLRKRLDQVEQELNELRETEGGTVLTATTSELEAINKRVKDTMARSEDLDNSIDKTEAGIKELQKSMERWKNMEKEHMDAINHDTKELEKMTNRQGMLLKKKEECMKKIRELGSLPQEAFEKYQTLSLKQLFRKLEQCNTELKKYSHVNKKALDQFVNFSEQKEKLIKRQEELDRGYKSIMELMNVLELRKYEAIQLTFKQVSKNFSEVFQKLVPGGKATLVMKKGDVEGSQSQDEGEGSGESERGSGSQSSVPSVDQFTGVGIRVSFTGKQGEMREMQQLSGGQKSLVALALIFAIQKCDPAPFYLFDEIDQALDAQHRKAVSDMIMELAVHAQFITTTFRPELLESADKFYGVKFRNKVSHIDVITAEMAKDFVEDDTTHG

T1: endogenous NudCL2 (human (endogenous in HeLa)) (UniProt Q8WVJ2)
T1 sequence: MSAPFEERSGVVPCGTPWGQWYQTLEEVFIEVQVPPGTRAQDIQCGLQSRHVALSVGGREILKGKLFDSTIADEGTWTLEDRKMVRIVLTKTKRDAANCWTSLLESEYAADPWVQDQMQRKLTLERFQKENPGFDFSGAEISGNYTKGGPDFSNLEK

T2: GST-NudCL2 (human) (UniProt Q8WVJ2)
T2 sequence: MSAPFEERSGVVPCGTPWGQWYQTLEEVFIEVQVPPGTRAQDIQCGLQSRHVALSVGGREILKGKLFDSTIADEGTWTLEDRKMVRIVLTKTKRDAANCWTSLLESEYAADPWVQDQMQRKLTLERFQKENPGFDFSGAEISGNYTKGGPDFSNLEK


How the values were obtained:
[1] = target: T1, endogenous NudCL2 (human (endogenous in HeLa)); experiment: co-IP; endogenous proteins; total HeLa lysates (TBSN buffer: 20 mM Tris pH 8.0, 150 mM NaCl, 0.5% Nonidet P-40) immunoprecipitated with anti-NudCL2 or anti-Rad21 antibody or IgG; Western blotting
GST-NudCL2 (human) [2] = target: T2, GST-NudCL2 (human); experiment: pull-down; purified GST or GST-NudCL2 protein incubated with HeLa cell lysates; immunoblotting; only the target purified
GST-NudCL2 (human) [3] = target: T2, GST-NudCL2 (human); experiment: pull-down; GST or GST-NudCL2 protein incubated with each of the purified His-tagged cohesin subunits from Sf9 cells; Western analysis; both purified

Molecule	binding [1]	binding (GST-NudCL2 (human) [2])	binding (GST-NudCL2 (human) [3])
Smc3, endogenous (from UniProt Q9UQE7 1-1217)	binds	binds	–
Smc1α, endogenous (protein, UniProt Q14683 1-1233) MGFLKLIEIENFKSYKGRQIIGPFQRFTAIIGPNGSGKSNLMDAISFVLGEKTSNLRVKTLRDLIHGAPVGKPAANRAFVSMVYSEEGAEDRTFARVIVGGSSEYKINNKVVQLHEYSEELEKLGILIKARNFLVFQGAVESIAMKNPKERTALFEEISRSGELAQEYDKRKKEMVKAEEDTQFNYHRKKNIAAERKEAKQEKEEADRYQRLKDEVVRAQVQLQLFKLYHNEVEIEKLNKELASKNKEIEKDKKRMDKVEDELKEKKKELGKMMREQQQIEKEIKEKDSELNQKRPQYIKAKENTSHKIKKLEAAKKSLQNAQKHYKKRKGDMDELEKEMLSVEKARQEFEERMEEESQSQGRDLTLEENQVKKYHRLKEEASKRAATLAQELEKFNRDQKADQDRLDLEERKKVETEAKIKQKLREIEENQKRIEKLEEYITTSKQSLEEQKKLEGELTEEVEMAKRRIDEINKELNQVMEQLGDARIDRQESSRQQRKAEIMESIKRLYPGSVYGRLIDLCQPTQKKYQIAVTKVLGKNMDAIIVDSEKTGRDCIQYIKEQRGEPETFLPLDYLEVKPTDEKLRELKGAKLVIDVIRYEPPHIKKALQYACGNALVCDNVEDARRIAFGGHQRHKTVALDGTLFQKSGVISGGASDLKAKARRWDEKAVDKLKEKKERLTEELKEQMKAKRKEAELRQVQSQAHGLQMRLKYSQSDLEQTKTRHLALNLQEKSKLESELANFGPRINDIKRIIQSREREMKDLKEKMNQVEDEVFEEFCREIGVRNIREFEEEKVKRQNEIAKKRLEFENQKTRLGIQLDFEKNQLKEDQDKVHMWEQTVKKDENEIEKLKKEEQRHMKIIDETMAQLQDLKNQHLAKKSEVNDKNHEMEEIRKKLGGANKEMTHLQKEVTAIETKLEQKRSDRHNLLQACKMQDIKLPLSKGTMDDISQEEGSSQGEDSVSGSQRISSIYAREALIEIDYGDLCEDLKDAQAEEEIKQEMNTLQQKLNEQQSVLQRIAAPNMKAMEKLESVRDKFQETSDEFEAARKRAKKAKQAFEQIKKERFDRFNACFESVATNIDEIYKALSRNSSAQAFLGPENPEEPYLDGINYNCVAPGKRFRPMDNLSGGEKTVAALALLFAIHSYKPAPFFVLDEIDAALDNTNIGKVANYIKEQSTCNFQAIVISLKEEFYTKAESLIGVYPEQGDCVISKVLTFDLTKYPDANPNPNEQ	binds	binds	–
His-Rad21 (protein, UniProt O60216 1-631) MFYAHFVLSKRGPLAKIWLAAHWDKKLTKAHVFECNLESSVESIISPKVKMALRTSGHLLLGVVRIYHRKAKYLLADCNEAFIKIKMAFRPGVVDLPEENREAAYNAITLPEEFHDFDQPLPDLDDIDVAQQFSLNQSRVEEITMREEVGNISILQENDFGDFGMDDREIMREGSAFEDDDMLVSTTTSNLLLESEQSTSNLNEKINHLEYEDQYKDDNFGEGNDGGILDDKLISNNDGGIFDDPPALSEAGVMLPEQPAHDDMDEDDNVSMGGPDSPDSVDPVEPMPTMTDQTTLVPNEEEAFALEPIDITVKETKAKRKRKLIVDSVKELDSKTIRAQLSDYSDIVTTLDLAPPTKKLMMWKETGGVEKLFSLPAQPLWNNRLLKLFTRCLTPLVPEDLRKRRKGGEADNLDEFLKEFENPEVPREDQQQQHQQRDVIDEPIIEEPSRLQESVMEASRTNIDESAMPPPPPQGVKRKAGQIDPEPVMPPQQVEQMEIPPVELPPEEPPNICQLIPELELLPEKEKEKEKEKEDDEEEEDEDASGGDQDQEERRWNKRTQQMLHGLQRALAKTGAESISLLELCRNTNRKQAAAKFYSFLVLKKQQAIELTQEEPYSDIIATPGPRFHII	–	–	no binding
His-SA2 (protein, UniProt Q8N3U4 1-1231) MIAAPEIPTDFNLLQESETHFSSDTDFEDIEGKNQKQGKGKTCKKGKKGPAEKGKGGNGGGKPPSGPNRMNGHHQQNGVENMMLFEVVKMGKSAMQSVVDDWIESYKHDRDIALLDLINFFIQCSGCKGVVTAEMFRHMQNSEIIRKMTEEFDEDSGDYPLTMAGPQWKKFKSSFCEFIGVLVRQCQYSIIYDEYMMDTVISLLTGLSDSQVRAFRHTSTLAAMKLMTALVNVALNLSINMDNTQRQYEAERNKMIGKRANERLELLLQKRKELQENQDEIENMMNAIFKGVFVHRYRDAIAEIRAICIEEIGIWMKMYSDAFLNDSYLKYVGWTMHDKQGEVRLKCLTALQGLYYNKELNSKLELFTSRFKDRIVSMTLDKEYDVAVQAIKLLTLVLQSSEEVLTAEDCENVYHLVYSAHRPVAVAAGEFLYKKLFSRRDPEEDGMMKRRGRQGPNANLVKTLVFFFLESELHEHAAYLVDSMWDCATELLKDWECMNSLLLEEPLSGEEALTDRQESALIEIMLCTIRQAAECHPPVGRGTGKRVLTAKEKKTQLDDRTKITELFAVALPQLLAKYSVDAEKVTNLLQLPQYFDLEIYTTGRLEKHLDALLRQIRNIVEKHTDTDVLEACSKTYHALCNEEFTIFNRVDISRSQLIDELADKFNRLLEDFLQEGEEPDEDDAYQVLSTLKRITAFHNAHDLSKWDLFACNYKLLKTGIENGDMPEQIVIHALQCTHYVILWQLAKITESSSTKEDLLRLKKQMRVFCQICQHYLTNVNTTVKEQAFTILCDILMIFSHQIMSGGRDMLEPLVYTPDSSLQSELLSFILDHVFIEQDDDNNSADGQQEDEASKIEALHKRRNLLAAFCKLIVYTVVEMNTAADIFKQYMKYYNDYGDIIKETMSKTRQIDKIQCAKTLILSLQQLFNEMIQENGYNFDRSSSTFSGIKELARRFALTFGLDQLKTREAIAMLHKDGIEFAFKEPNPQGESHPPLNLAFLDILSEFSSKLLRQDKRTVYVYLEKFMTFQMSLRREDVWLPLMSYRNSLLAGGDDDTMSVISGISSRGSTVRSKKSKPSTGKRKVVEGMQLSLTEESSSSDSMWLSREQTLHTPVMMQTPQLTSTIMREPKRLRPEDSFMSVYPMQTEHHQTPLDYNRRGTSLMEDDEEPIVEDVMMSSEGRIEDLNEGMDFDTMDIDLPPSKNRRERTELKPDFFDPASIMDESVLGVSMF	–	–	no binding
